Measured values published in PubChem BioAssay AID1259415 (National Center for Advancing Translational Sciences (NCATS), 2018).
Among all 410,000 compounds or so, about 18,000 (4.4%) were called active. Inconclusive means that the source gave no clear call. Such entries were picked first, then a sample of the others. Cut-off read from the data, not from the text of the source: active = activity change below about -60%; inconclusive = no clear call, values can overlap the other calls; inactive = above about -39%.

Assay: qHTS Assay for inhibitors of the human cytomegalovirus (HCMV)
Conditions: HFF cells, HCMV-luciferase reporter, 72 h; at 57.5 µM; active compounds read low
Outline: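 Two-dose cell screen: HFF monolayers treated with compounds and infected with luciferase-expressing HCMV at 1 PFU/cell, 72 h at 37C, then lysed for luciferase measurement.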
% is set by controls: 0 for no effect and ±100 for the full control effect.

Structure (SMILES)	activity change, negative = inhibition
CC(=O)Nc1sc(C)c(C)c1CN1CCN(Cc2ccccc2)CC1	inactive: 50.8%
Cc1cccc(N2CCN(C(=O)CCS(=O)(=O)c3ccc(Br)cc3)CC2C)c1 (centres undefined)	inconclusive: -47.8%
O=C(c1cnn2c(C(F)(F)F)cc(-c3ccc(F)cc3)nc12)N1CCc2ccccc2C1	active: -71.7%
COc1ccc(CCNC(=O)c2coc3ccccc3c2=O)cc1	inconclusive: -49.5%
Fc1cc(Br)ccc1NC(=S)Nc1cccnc1	inconclusive: -52.1%
C=C(C)Cn1c(CN(C)Cc2ccccc2)nc2c1c(=O)n(C)c(=O)n2C	inconclusive: -47.9%
COc1cccc(COC(=O)c2cc(S(=O)(=O)N3CCCCC3)ccc2N2CCOCC2)c1OC	inactive: -4.04%
C=CCSc1nc2ccccc2n1C(=O)/C=C/c1ccc(OC)c(OC)c1	active: -103%
OC(c1ccccc1)(c1nc(-c2ccc3ccccc3c2)cs1)C(F)(F)F (centres undefined)	active: -83.1%
COc1ccccc1C(=O)OCC(=O)NC(=O)NC1CCCCC1	inactive: -21.8%
Nc1ccc2oc3ccc(N)cc3c(=O)c2c1	inconclusive: -40.1%
CN(Cc1cccc(F)c1)C(=O)Cc1ccc(S(=O)(=O)N2CCOCC2)s1	inconclusive: -43.9%
Cc1ccc(NC(=O)CCS(=O)(=O)c2ccc(Br)cc2)nc1	inconclusive: -57%
COc1ccc(-c2csc(NC(=O)COc3ccc(N(C)S(=O)(=O)c4ccc(C)cc4)cc3)n2)cc1	inconclusive: -51.4%
CCn1c(/C=C/Nc2ccccc2)[n+](CC)c2ccc(C(=O)OCC(F)(F)F)cc21	inconclusive: -51.2%
CN1CCN(C(=O)C2CCCN(S(=O)(=O)c3ccc(Br)cc3)C2)CC1 (centres undefined)	inconclusive: -45.4%
COc1ccc(NS(=O)(=O)c2cc(OCC(N)=O)c(C)cc2Cl)cc1	inactive: -28.9%
Cc1ccc(CN(C(=O)COc2c(C)cccc2C)C2CCS(=O)(=O)C2)o1 (centres undefined)	inconclusive: -50.8%
O=C(O)C(C(=O)/C=C/c1ccco1)=C1SCCS1	inconclusive: -43.9%
CCc1nnc(NC(=O)C(=O)c2cc(C)n(-c3ccccc3)c2C)s1	inconclusive: -41.5%
O=C(Nc1cccc(Cl)c1)c1ccc(OC(=S)N2CCOCC2)cc1	inconclusive: -56.1%
N=C1c2ccccc2CN1c1ccc(S(=O)(=O)N2CCCCC2)cc1	inconclusive: -46.7%
O=C(CSc1ccc2c(c1)OCCO2)Nc1ccccc1	inconclusive: -43.1%
Cc1cccn2c(=O)cc(COc3cccc(NC(=O)COc4ccc(F)cc4)c3)nc12	active: -90.4%

2 consecutive entries from above, quoted:
Structure (SMILES)	activity change, negative = inhibition
O=C(CSc1ccc2c(c1)OCCO2)Nc1ccccc1	inconclusive: -43.1%
Cc1cccn2c(=O)cc(COc3cccc(NC(=O)COc4ccc(F)cc4)c3)nc12	active: -90.4%
